Measurements taken from the supplement of paper PMC6078165.
Values are relative to the signal before dosing, not to a vehicle control; the signal also falls without drug.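 Labels refer to human fibroblasts, largely primary: uterine (C12385, HUF), lung (H6013), bone (Hs27A), adrenal (HADF), skin (WS1), plus mammary HMF and breast cancer-associated Hs343T. Cancer lines are basal-like or mesenchymal-like triple-negative breast cancer. The paper counts as hits responses shifting over 3x the replicate standard deviation. The tissue of the other fibroblasts is not given here.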

Test system: MDAMB468
Assay: relative JC-1 red fluorescence (viability) vs pre-drug, coculture with fibroblast (fraction); higher = more viable cancer cells
Experimental: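 JC-1 labelled TNBC cells cocultured 1:1 (1,500 cells each) with CellTrace Violet stained primary or stromal fibroblasts in 384-well plates in FluoroBrite medium, treated with one of 42 anticancer drugs at 0.1, 1, 10 or 100 uM. JC-1 red fluorescence (mitochondrial integrity in cancer cells only) was read by plate reader every 8 h for 72 h. Values are normalised to each well's pre-drug value. The stock of one drug was tenfold lower, so its dose labels may be too high.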

CC[C@]1(O)C[C@H]2CN(CCc3c([nH]c4ccccc34)[C@@](C(=O)OC)(c3cc4c(cc3OC)N(C=O)[C@H]3[C@@](O)(C(=O)OC)[C@H](OC(C)=O)[C@]5(CC)C=CCN6CC[C@]43[C@@H]65)C2)C1 [Vincristine]
relative JC-1 red fluorescence
Details | 8 h | 16 h | 24 h | 32 h | 40 h | 48 h | 56 h | 64 h | 72 h
0.1 µM, coculture fibroblast: C12385 | 0.8599 | 0.8769 | 0.9069 | 0.896 | 0.884 | 0.94 | 0.935 | 0.971 | 0.874
0.1 µM, coculture fibroblast: H6013 | 0.8627 | 0.874 | 0.851 | 0.8631 | 0.879 | 0.912 | 0.908 | 0.92 | 0.868
0.1 µM, coculture fibroblast: H6019 | 0.871 | 0.884 | 0.926 | 0.918 | 0.817 | 0.95 | 0.936 | 0.8965 | 0.79
0.1 µM, coculture fibroblast: H6076 | 0.952 | 0.954 | 0.915 | 0.729 | 0.9445 | 0.949 | 0.929 | 0.9231 | 0.9581
0.1 µM, coculture fibroblast: H6231 | 0.818 | 0.935 | 0.897 | 0.901 | 0.852 | 0.838 | 0.798 | 0.765 | 0.777
0.1 µM, coculture fibroblast: HADF | 0.868 | 0.87 | 0.8419 | 0.836 | 0.8154 | 0.827 | 0.802 | 0.817 | 0.762
0.1 µM, coculture fibroblast: HCFa | 0.848 | 0.825 | 0.779 | 0.764 | 0.723 | 0.716 | 0.679 | 0.64 | 0.593
0.1 µM, coculture fibroblast: HCPF | 0.841 | 0.933 | 0.8816 | 0.893 | 0.831 | 0.795 | 0.734 | 0.722 | 0.713
0.1 µM, coculture fibroblast: HHSteC | 0.9133 | 0.909 | 0.883 | 0.843 | 0.82 | 0.823 | 0.764 | 0.742 | 0.694
0.1 µM, coculture fibroblast: HMF | 0.8733 | 0.969 | 0.944 | 0.936 | 0.866 | 0.852 | 0.814 | 0.814 | 0.821
0.1 µM, coculture fibroblast: HPFa | 0.891 | 0.879 | 0.8567 | 0.808 | 0.77 | 0.765 | 0.706 | 0.7 | 0.642
0.1 µM, coculture fibroblast: HUF | 0.903 | 0.851 | 0.835 | 0.78 | 0.757 | 0.757 | 0.731 | 0.739 | 0.745
0.1 µM, coculture fibroblast: Hs5 | 0.907 | 0.89 | 0.966 | 0.9565 | 0.905 | 0.885 | 0.866 | 0.843 | 0.878
0.1 µM, coculture fibroblast: Hs27A | 0.8698 | 0.88346 | 0.8464 | 0.87514 | 0.8471 | 0.8674 | 0.8484 | 0.8502 | 0.7929
0.1 µM, coculture fibroblast: Hs343T | 0.8915 | 0.812 | 0.9618 | 0.9479 | 0.883 | 0.8686 | 0.8167 | 0.80366 | 0.7844
0.1 µM, coculture fibroblast: WS1 | 0.881 | 0.833 | 0.84 | 0.831 | 0.822 | 0.846 | 0.851 | 0.874 | 0.897
1 µM, coculture fibroblast: C12385 | 0.9046 | 0.8823 | 0.8622 | 0.8031 | 0.751 | 0.733 | 0.701 | 0.673 | 0.657
1 µM, coculture fibroblast: H6013 | 0.89679 | 0.898 | 0.832 | 0.83 | 0.804 | 0.81 | 0.793 | 0.778 | 0.745
1 µM, coculture fibroblast: H6019 | 0.8752 | 0.841 | 0.826 | 0.779 | 0.773 | 0.774 | 0.749 | 0.737 | 0.73
1 µM, coculture fibroblast: H6076 | 0.9769 | 0.883 | 0.984 | 0.9764 | 0.9095 | 0.8829 | 0.832 | 0.804 | 0.853
1 µM, coculture fibroblast: H6231 | 0.84875 | 0.9897 | 0.9117 | 0.8649 | 0.819 | 0.795 | 0.748 | 0.746 | 0.741
1 µM, coculture fibroblast: HADF | 0.898 | 0.881 | 0.83 | 0.824 | 0.781 | 0.774 | 0.741 | 0.727 | 0.692
1 µM, coculture fibroblast: HCFa | 0.89143 | 0.858 | 0.8115 | 0.8041 | 0.733 | 0.734 | 0.685 | 0.654 | 0.602
1 µM, coculture fibroblast: HCPF | 0.9067 | 0.863 | 0.938 | 0.943 | 0.881 | 0.855 | 0.792 | 0.772 | 0.761
1 µM, coculture fibroblast: HHSteC | 0.945 | 0.951 | 0.897 | 0.895 | 0.873 | 0.882 | 0.832 | 0.802 | 0.752
1 µM, coculture fibroblast: HMF | 0.872 | 0.845 | 0.9042 | 0.896 | 0.84 | 0.825 | 0.782 | 0.768 | 0.755
1 µM, coculture fibroblast: HPFa | 0.929 | 0.929 | 0.885 | 0.845 | 0.813 | 0.796 | 0.738 | 0.729 | 0.658
1 µM, coculture fibroblast: HUF | 0.916 | 0.846 | 0.793 | 0.734 | 0.7 | 0.682 | 0.643 | 0.632 | 0.614
1 µM, coculture fibroblast: Hs5 | 0.713 | 0.766 | 0.802 | 0.778 | 0.959 | 0.929 | 0.891 | 0.85 | 0.876
1 µM, coculture fibroblast: Hs27A | 0.8829 | 0.83658 | 0.848 | 0.851 | 0.808 | 0.814 | 0.794 | 0.78 | 0.745
1 µM, coculture fibroblast: Hs343T | 0.906 | 0.904 | 0.938 | 0.913 | 0.856 | 0.834 | 0.774 | 0.751 | 0.73
1 µM, coculture fibroblast: WS1 | 0.899 | 0.8453 | 0.804 | 0.761 | 0.744 | 0.715 | 0.701 | 0.688 | 0.69
